From paper PMC6288840
No constants are given. Whether binding was seen depends on the method and setting. Binding seen in cells or lysates may run through a third protein. Some entries that bind do so weakly or less than the wild type. Sequences can lack the tags named with a protein.

Amino acid sequences for entries named in this document (tags omitted).
UniProt P22147: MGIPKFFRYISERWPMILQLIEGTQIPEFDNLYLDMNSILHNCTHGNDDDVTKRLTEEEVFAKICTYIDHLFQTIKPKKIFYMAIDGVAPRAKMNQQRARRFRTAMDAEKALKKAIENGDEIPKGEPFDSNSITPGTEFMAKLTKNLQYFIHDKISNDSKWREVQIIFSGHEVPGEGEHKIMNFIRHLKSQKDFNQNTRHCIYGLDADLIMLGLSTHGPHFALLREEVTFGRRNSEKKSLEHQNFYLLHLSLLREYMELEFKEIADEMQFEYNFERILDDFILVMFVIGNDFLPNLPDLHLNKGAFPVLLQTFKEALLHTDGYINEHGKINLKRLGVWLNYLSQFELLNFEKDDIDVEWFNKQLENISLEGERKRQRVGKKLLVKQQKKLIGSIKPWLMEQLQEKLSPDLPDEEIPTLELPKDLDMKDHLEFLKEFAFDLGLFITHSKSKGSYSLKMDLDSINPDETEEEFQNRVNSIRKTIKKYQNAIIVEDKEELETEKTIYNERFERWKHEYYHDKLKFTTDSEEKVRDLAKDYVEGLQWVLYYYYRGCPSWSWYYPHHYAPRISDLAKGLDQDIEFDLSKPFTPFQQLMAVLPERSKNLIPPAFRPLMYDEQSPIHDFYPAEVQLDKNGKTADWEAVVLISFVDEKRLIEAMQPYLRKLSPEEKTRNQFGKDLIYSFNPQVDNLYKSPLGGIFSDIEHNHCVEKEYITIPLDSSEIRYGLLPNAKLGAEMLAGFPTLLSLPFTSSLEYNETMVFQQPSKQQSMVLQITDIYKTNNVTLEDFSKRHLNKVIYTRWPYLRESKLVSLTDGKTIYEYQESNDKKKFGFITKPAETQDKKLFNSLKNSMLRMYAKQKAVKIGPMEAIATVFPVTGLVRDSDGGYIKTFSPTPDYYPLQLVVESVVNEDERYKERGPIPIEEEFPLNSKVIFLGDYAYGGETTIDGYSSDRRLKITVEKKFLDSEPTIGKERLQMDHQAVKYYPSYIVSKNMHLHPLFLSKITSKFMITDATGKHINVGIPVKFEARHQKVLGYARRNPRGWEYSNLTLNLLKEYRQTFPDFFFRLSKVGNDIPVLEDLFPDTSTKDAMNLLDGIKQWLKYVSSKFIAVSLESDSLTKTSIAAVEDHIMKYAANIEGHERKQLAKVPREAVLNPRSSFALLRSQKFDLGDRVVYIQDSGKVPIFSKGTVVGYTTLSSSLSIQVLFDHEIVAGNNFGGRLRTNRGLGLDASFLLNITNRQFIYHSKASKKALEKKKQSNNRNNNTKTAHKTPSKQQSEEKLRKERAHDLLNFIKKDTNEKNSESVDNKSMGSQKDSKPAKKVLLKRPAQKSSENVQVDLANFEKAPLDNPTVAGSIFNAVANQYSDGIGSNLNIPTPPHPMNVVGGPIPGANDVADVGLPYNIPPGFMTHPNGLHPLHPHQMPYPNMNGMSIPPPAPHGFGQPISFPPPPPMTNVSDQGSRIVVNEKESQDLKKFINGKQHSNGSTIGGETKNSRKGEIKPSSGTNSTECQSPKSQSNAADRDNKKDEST

Target: Xrn1-Flag (S. cerevisiae) (UniProt P22147)
Assay: co-IP; Xrn1-Flag immunoprecipitated with Flag antibodies from yeast cells that also carry a GFP-tagged partner; wild type or rad53 deletion cells, untreated or treated with 0.05% MMS for 3 hr

B1: Ngr1-GFP (protein, UniProt P32831 1-672)
chain: MMSNVANASQRQENPYIIPLPPSSTVETSTEPPRTLWMGDLDPSFDEATIEEIWSKLDKKVIVKLIRAKKNLLIPCSSTSSSNNNTSEENAENQQSASNSTDQLDNSQMININGISFIDPSTTQLHHAGYCFVEFETQKDAKFALSLNATPLPNFYSPTTNSQTNPTFKRTFRLNWASGATLQSSIPSTPEFSLFVGDLSPTATEADLLSLFQTRFKSVKTVRVMTDPLTGSSRCFGFVRFGDEDERRRALIEMSGKWFQGRALRVAYATPRNNMMLQLQEQQQQQQQLQQQHQQLDQEDNNGPLLIKTANNLIQNNSNMLPLNALHNAPPMHLNEGGISNMRVNDSLPSNTYNTDPTNTTVFVGGLVPKTTEFQLRSLFKPFGPILNVRIPNGKNCGFVKFEKRIDAEASIQGLQGFIVGGSPIRLSWGRPSSSNAKTNSTIMGASQYMSSNGLRAPSAASSVDNSKQILEQYAEDKRRLFLHQQQQQQQQQQQDGNFSMEQMAHNNYYNYNNYDYHRNKNGSHSDLVNLQRSNVPYMQEDGALYPHQYSSPSYSLHPTGNQFSNATNNLPQFGNAMSISMQLPNGNSNKTASSMNTNPNTNMIMNSNMNMNMNVNPVPYGMGNGANMYDVSRMMTPPLNIAPNSNNSKSSIMNKHPNRNNVPPIHPSLLH
binding: binds
